Assay [1] has as its target LexA DBD-ETS-4(S73E) (C. elegans). The assay is described as follows: two-hybrid; LexA DBD-ETS-4 fusions (pBTM116) with GAL4 AD-CEBP-1 (pACTII) in S. cerevisiae L40u; growth on SC-Leu-Trp-His plates with 80 mM 5-aminotriazole, 30 C, 4 days.
Assay [2] deals with LexA DBD-ETS-4 (C. elegans). Described as above.
In assay [3] the target is LexA DBD-ETS-4(S73A) (C. elegans). Described as above.
Assay [4] has as its target LexA DBD-ETS-4(S73E) (C. elegans). Description: two-hybrid; LexA DBD-ETS-4 fusions (pBTM116) with GAL4 AD-CEBP-1 (pACTII) in S. cerevisiae NMY51; beta-galactosidase activity in cellular extracts (Miller units), background with the control vector pACTII subtracted; ten independent experiments.
The target in assay [5] is LexA DBD-ETS-4 (C. elegans). The description is as above.
In assay [6] the target is LexA DBD-ETS-4(S73A) (C. elegans). The assay is described as above.

These are yes or no findings as the source states them, for the method shown. For part of these data: Binding can be weak; no strength is given. Sequences can lack the tags named with a protein.

B1: GAL4 AD-CEBP-1 (protein, UniProt Q18909 1-319)
chain: MYSKLNYSHQKGDQALKHPHLVRLQQSEVRGFTDMPNNGASTSSAGSFARQDSLTIAASLQQRDRERHPVDFMETELDLGDYLQVLHDLDVPTDNVDFDDAELQKCNILYDGEHPYEQPELNGYERHVAYGTGYRVPGDYDQDGYKMNCEVKAETPDFGATKTRRAVKRPVPYDDYQKEYSEESSDMTDNDGSVDDSYFEPKSKKTKSAGLENFKPQTRARKYKLKADEEKAEPTYKLKRARNNDAVRKSRKKAKELQDKKEAEHDKMKRRIAELEGLLQSERDARRRDQDTLEQLLRNKGPMKEQRMPQRHILENFNK
Turning to B1, the binding result in assay [1] was “binds”; in assay [2], “binds”; in assay [3], “no binding”; in assay [4], “binds”; in assay [5] it was “binds”; in assay [6], “no binding”.
